1 substance from patent US9422339B2 (Aurigene Discovery Technologies Limited, priority 2012, dated 2016) can be followed below.

Some peptides are written in HELM: one residue between dots, names in brackets for other building blocks, links after the first $.

This data set is described as follows: general procedure: Fmoc solid-phase peptide synthesis; Rink Amide MBHA-Amide resin (100-200 mesh, 0.66 mmol/g); 2-chlorotrityl chloride resin (1.12 mmol/g); DIC/HOBT. The following applies: whole synthesis.

The substance “PEPTIDE1{S.E.T.S.K.S.F.[am]}$PEPTIDE1,PEPTIDE1,2:R3-5:R3$$$V2.0” displayed a crude mass of 760 mg. The “final HPLC purity” value (HPLC, scale of the general procedure 0.5-1 g resin) came to 97.1%. This substance returned a crude yield (scale of the general procedure 0.5-1 g resin) of 75%.
